From patent US7049396B2, “Synthetic peptides that inhibit leukocyte superoxide anion production and/or attract leukocytes” (priority 1995, dated 2006)
Not every detail of the peptide structures is certain; ends, links or a residue may be inferred. Where a SMILES comes first, the peptide text is derived from it.

Experiments:
[1] = test system: E. coli, ATCC 25922; test: Gel-overlay antibacterial assay; type: cell-based, Escherichia coli; details: 10 μg peptide per lane, AU-PAGE gel overlaid with E. coli, 18 hr
[2] = test system: E. coli, ATTC 25922; test: Lawn-spotting antibacterial assay (E. coli); type: cell-based, Escherichia coli; details: for antibacterial activity (clear zone on bacterial lawn): E. coli lawn, 5 μl spotted, inactive segments up to 1 mg/ml
[3] = test system: S. typhimurium, KSU isolate 7; test: Lawn-spotting antibacterial assay (S. typhimurium); type: cell-based, Salmonella typhimurium; details: for antibacterial activity (clear zone on bacterial lawn): S. typhimurium lawn, 5 μl spotted, inactive segments up to 1 mg/ml
[4] = test system: whole-cell NADPH oxidase activity of porcine peripheral blood neutrophils; test: Whole-cell O2- production, ferricytochrome c reduction; type: cell-based; details: incubated 150 min. before PMA stimulation
Procedure: Regulation of neutrophil O2^− production by PR-26 and PR-39. • (i) O2^− production assays. Whole-cell O2^− production by por-cine peripheral blood neutrophils was determined by the superoxide dismutase-inhibitable reduction of ferricytochrome c as previously described (Shi et al., 1994a). Cell-free O2^− production was measured as previously described (Leto et al., 1991) using 96-well plates and a Molecular Devices Thermomax microplate reader (Menlo Park, Calif.). Reactions (100 μl) contained 10^6 cell equivalents of human neutrophil cytosol and 5×10^5 cell equivalents of deoxycholate-solubilized membranes prepared from human peripheral blood neutrophils. Reaction mixtures contained 50 mM potassium phosphate (pH 7), 0.2 mM acetylated cytochrome c, 4 mM MgCl2, 1 mM EGTA, 10 μM FAD, 1 μM GTP-γS, and 200 μM NADPH. The reactions were initiated by addition of 40 μM arachidonic acid. Control reactions contained 5 μg of superoxide dismutase. Superoxide anion generation was calculated based on superoxide dismutase-inhibitable changes in cytochrome c absorbance observed at 551 nm. The reactions were followed for 20 min. after addition of arachidonic acid, with absorbance readings taken at 1-min. intervals. Maximum rates of superoxide generation were calculated from a linear least squares fit of 10 consecutive 1-min. data points. Determinations were based on reactions performed in duplicate. • (ii) Binding assays. Neutrophils were disrupted by sonication, and unbroken cells, debris, and granules were removed by centrifuigation (13,000×g for 60 min.). Cytosol fractions were prepared by centrifugation (100,000 g for 45 min.) of the supernatants to remove residual membranes. Cytosolic proteins (15 μg in reducing buffer) were separated on a 7.5% SDS PAGE gel, transferred to PVDF membranes, and probed with biotinylated PR-39 (0.3 μM) for 2 hr. Binding between PR-39 and cytosolic proteins were visualized by a chemiluminescent streptavidin alkaline phosphatase system using an Epson scanner (Torrance, Calif.) and the NIH Image program. […]

[5] = biological target: T1, interaction between GST-p47^phox and recombinant p22^phox (Homo sapiens, UniProt P14598); test: Solution binding assay GST-p47phox-SH3 / recombinant p22phox
T1 construct: (GST)-p47^phox-SH3 (residues 151–284) fusion protein; made in house; host or cells: p22phox fragment: baculovirus-infected cells (used as lysate)
T1 sequence (P14598 151-284): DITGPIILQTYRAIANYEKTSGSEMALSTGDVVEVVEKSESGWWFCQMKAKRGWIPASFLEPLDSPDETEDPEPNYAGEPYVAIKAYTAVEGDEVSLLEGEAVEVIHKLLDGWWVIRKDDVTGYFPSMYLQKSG
Procedure: Methods for production of the glutathione S-transferase (GST)-p47^phox-SH3 (residues 151–284) fusion protein have been previously described (Leto et al., 1994). For solution binding assays, lysates of recombinant p22^phox protein (residues 127–195) from baculovirus-infected cells (2.5×10^4 cell equivalents per assay) were mixed with peptides and incubated for 1 hr. at 20° C. with 100 μl of GST-p47^phox bound to glutathione-Sepharose beads (15% suspension). Bound proteins were washed three times in 15 volumes of ice-cold 100 mM KCl/3 mM NaCl/3.5 mM MgCl2/0.15 mM phenylmethanesulfonyl fluoride/10 mM Pipes (pH 7.5), eluted with 1% SDS, and analyzed by SDS-PAGE followed by immunoblotting with mouse anti-p22^phox antibody (mAb 449; A. Verhoeven, Central Laboratories of the Netherlands Red Cross). Controls included blotting of recombinant p22^phox lysate (5×10^3 cell equivalents) alone (p22) and bound complexes detected without competing PR peptides (−).

[6] = test system: S. typhimurium; test: Postantibiotic effect (PAE); type: cell-based, Salmonella typhimurium; details: 2 hr exposure
Procedure: Plates were incubated at 37° C. for 18 hr. […] Viable bacteria were counted. Tests were repeated on three different days. […] The results were expressed as the mean ± standard deviation. […] S. choleraesuis, ATCC 6962 was used in this experiment. […] Slides were stained with LeukoStat solutions (Fisher, Pittsburgh, Pa.). […] At least 200 neutrophils were examined. […] Tests were repeated on three different days. Results were expressed as the mean±standard deviation.

[7] = biological target: T2, cell-free NADPH oxidase (human neutrophil cytosol and membranes) (Homo sapiens, UniProt P14598); test: Cell-free O2- production assay; type: biochemical; details: concentrations greater than 5 μM
T2 construct: 10^6 cell equivalents of human neutrophil cytosol; from tissue; host or cells: human peripheral blood neutrophils (cytosol and deoxycholate-solubilized membranes)
T2 sequence (P14598 1-390): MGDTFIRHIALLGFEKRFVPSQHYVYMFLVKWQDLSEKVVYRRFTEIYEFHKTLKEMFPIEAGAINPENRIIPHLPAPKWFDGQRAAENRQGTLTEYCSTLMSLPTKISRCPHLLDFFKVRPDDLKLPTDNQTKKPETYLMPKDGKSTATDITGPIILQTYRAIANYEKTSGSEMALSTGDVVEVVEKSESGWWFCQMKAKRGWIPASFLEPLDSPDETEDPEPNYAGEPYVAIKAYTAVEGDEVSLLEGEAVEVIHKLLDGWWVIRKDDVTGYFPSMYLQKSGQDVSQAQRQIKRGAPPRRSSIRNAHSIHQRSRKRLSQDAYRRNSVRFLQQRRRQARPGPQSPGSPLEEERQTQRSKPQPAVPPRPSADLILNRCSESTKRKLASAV
Procedure: Reactions (100 μl) contained 10^6 cell equivalents of human neutrophil cytosol and 5×10^5 cell equivalents of deoxycholate-solubilized membranes prepared from human peripheral blood neutrophils. […] Control reactions contained 5 μg of superoxide dismutase. Superoxide anion generation was calculated based on superoxide dismutase-inhibitable changes in cytochrome c absorbance observed at 551 nm. The reactions were followed for 20 min. after addition of arachidonic acid, with absorbance readings taken at 1-min. intervals. […] Determinations were based on reactions performed in duplicate. • (ii) Binding assays. Neutrophils were disrupted by sonication, and unbroken cells, debris, and granules were removed by centrifuigation (13,000×g for 60 min.). Cytosol fractions were prepared by centrifugation (100,000 g for 45 min.) of the supernatants to remove residual membranes. Cytosolic proteins (15 μg in reducing buffer) were separated on a 7.5% SDS PAGE gel, transferred to PVDF membranes, and probed with biotinylated PR-39 (0.3 μM) for 2 hr. Binding between PR-39 and cytosolic proteins were visualized by a chemiluminescent streptavidin alkaline phosphatase system using an Epson scanner (Torrance, Calif.) and the NIH Image program. PR-39 was labeled with biotin hydrazide at the carboxy-terminus (Pierce Chemical Co., Rockford, Ill.) and purified by gel filtration chromatography.

| SMILES | antibacterial activity (clear zones on overlaid gel) [1] | antibacterial activity (clear zone on bacterial lawn) [2] | antibacterial activity (clear zone on bacterial lawn) [3] | O2- generation by intact neutrophils [4] | blocking of p47phox SH3 / p22phox interaction, PR-19 compared with PR-23 [5] | antibacterial activity compared with PR-39 ([2]; lawn-spotting, E. coli) | antibacterial activity compared with PR-39 ([3]; lawn-spotting, S. typhimurium) | PAE (growth delay) ([6]; 0.1 MIC) | PAE ([6]; 1 MIC) | PAE ([6]; 8 MICs) | inhibition of O2- generation [7] | blocking of interaction between GST-p47phox and recombinant p22phox ([5]; concentrations close to IC50's of the cell-free oxidase assay) |
| --- | --- | --- | --- | --- | --- | --- | --- | --- | --- | --- | --- | --- |
| CC(C)C[C@H](NC(=O)[C@H](Cc1ccc(O)cc1)NC(=O)[C@@H]1CCCN1C(=O)[C@@H]1CCCN1C(=O)[C@H](CCCNC(=N)N)NC(=O)[C@@H]1CCCN1C(=O)[C@H](CCCNC(=N)N)NC(=O)[C@H](CCCNC(=N)N)NC(=O)[C@@H](N)CCCNC(=N)N)C(=O)N1CCC[C@H]1C(=O)N[C@@H](CCCNC(=N)N)C(=O)N1CCC[C@H]1C(=O)N[C@@H](CCCNC(=N)N)C(=O)N1CCC[C@H]1C(=O)N1CCC[C@H]1C(=O)N1CCC[C@H]1C(=O)N[C@@H](Cc1ccccc1)C(=O)N[C@@H](Cc1ccccc1)C(=O)N1CCC[C@H]1C(=O)O [PR-19] (H-RRRPRPPYLPRPRPPPFFP-OH) | only PR-26 and PR-39 were found to have antibacterial activity | no antibacterial activity | no antibacterial activity | did not significantly reduce | less potent |  |  |  |  |  |  |  |
| CC[C@H](C)[C@H](NC(=O)[C@H](CCCNC(=N)N)NC(=O)[C@@H]1CCCN1C(=O)[C@@H]1CCCN1C(=O)[C@H](CC(C)C)NC(=O)[C@H](CCCNC(=N)N)NC(=O)[C@@H]1CCCN1C(=O)[C@@H]1CCCN1C(=O)[C@H](Cc1ccccc1)NC(=O)[C@H](Cc1ccccc1)NC(=O)[C@@H]1CCCN1C(=O)[C@@H]1CCCN1C(=O)[C@@H]1CCCN1C(=O)[C@H](CCCNC(=N)N)NC(=O)[C@@H]1CCCN1C(=O)[C@H](CCCNC(=N)N)NC(=O)[C@@H]1CCCN1C(=O)[C@H](CC(C)C)NC(=O)[C@H](Cc1ccc(O)cc1)NC(=O)[C@@H]1CCCN1C(=O)[C@@H]1CCCN1C(=O)[C@H](CCCNC(=N)N)NC(=O)[C@@H]1CCCN1)C(=O)O [PR-23] (H-PRPPYLPRPRPPPFFPPRLPPRI-OH) | only PR-26 and PR-39 were found to have antibacterial activity | no antibacterial activity | no antibacterial activity | did not significantly reduce | inhibits better than PR-19 |  |  |  |  |  |  |  |
| CC[C@H](C)[C@H](NC(=O)[C@H](CCCNC(=N)N)NC(=O)[C@@H]1CCCN1C(=O)[C@@H]1CCCN1C(=O)[C@H](CC(C)C)NC(=O)[C@H](CCCNC(=N)N)NC(=O)[C@@H]1CCCN1C(=O)[C@@H]1CCCN1C(=O)[C@H](Cc1ccccc1)NC(=O)[C@H](Cc1ccccc1)NC(=O)[C@@H]1CCCN1C(=O)[C@@H]1CCCN1C(=O)[C@@H]1CCCN1C(=O)[C@H](CCCNC(=N)N)NC(=O)[C@@H]1CCCN1C(=O)[C@H](CCCNC(=N)N)NC(=O)[C@@H]1CCCN1C(=O)[C@H](CC(C)C)NC(=O)[C@H](Cc1ccc(O)cc1)NC(=O)[C@@H]1CCCN1C(=O)[C@@H]1CCCN1C(=O)[C@H](CCCNC(=N)N)NC(=O)[C@@H]1CCCN1C(=O)[C@H](CCCNC(=N)N)NC(=O)[C@H](CCCNC(=N)N)NC(=O)[C@@H](N)CCCNC(=N)N)C(=O)O [PR-26] (H-RRRPRPPYLPRPRPPPFFPPRLPPRI-OH) | antibacterial activity | had antibacterial activity | had antibacterial activity | significantly reduced |  | greater antibacterial activity | greater antibacterial activity | slight growth delay | significantly increased | significantly increased | completely inhibited | effectively blocked |
